# Assay results taken from patent US20130053336A1, “TREATMENT OF CHLAMYDIACEAE INFECTIONS BY MEANS OF BETA-LACTAMS” (priority 2010, published 2013).
# At least one compound was matched to its structure with a doubt left.
# Tested on: Chlamydia muridarum
# Assay: Murine model of genital infection (hydrosalpinx)
# Assay type: in vivo, C57B1/6 mice
# Conditions: 5 mg/ml in drinking water for 20 days from day 10, read 60 days later
# Description: The mice were infected by vaginal route with 10^7 IFU of Chlamydia muridarum. […] The antibiotic treatment was stopped after 20 days and the mice were kept isolated for an additional 60 days. The mice were then sacrificed, the appearance of the genital tract analyzed and the presence of hydrosalpinx (arrows) sought.
# C57B1/6 mice were infected with Chlamydia muridarum, a Chlamydia species that infects mice and guinea pigs and is genetically close to Chlamydia trachomatis. Estrous cycles in the mice were initiated by injection of progesterone, and then the mice were infected vaginally after 3 days (10^7 IFU). Ten days after infection, the mice were divided into three groups, a negative control group not receiving any antibiotic, a positive control group receiving doxycycline (5 mg/ml) and a test group receiving penicillin G (5 mg/ml). The duration of the treatment was 20 days; the antibiotics, doxycycline and penicillin G, were added to the mice's drinking water. After treatment, the mice were kept isolated for 60 days in order for persistent bacteria to reinitiate their cycle and for sequelae to develop. The mice were then sacrificed, the appearance of the genital tract analyzed and the presence of hydrosalpinx sought. Various organs were also taken.
# The effects of penicillin G were tested in a murine model of genital infection. […]
structure (smiles),measurement,value
C[C@H]1c2cccc(O)c2C(=O)C2=C(O)[C@]3(O)C(=O)C(C(N)=O)=C(O)[C@@H](N(C)C)[C@@H]3[C@@H](O)[C@@H]21 [doxycycline],appearance of the genital tract / hydrosalpinx,small hydrosalpinx in the oviduct
